Reference: article PMC12561186
Results are given in words; binding and its absence hold for the method and conditions named. In cells and extracts the contact can be indirect. A yes stands for co-enrichment or nearness to the bait. Other partners may have been found.

Protein sequences, listed by entry. Tags and fused reporters are not part of them.
UniProt P23526: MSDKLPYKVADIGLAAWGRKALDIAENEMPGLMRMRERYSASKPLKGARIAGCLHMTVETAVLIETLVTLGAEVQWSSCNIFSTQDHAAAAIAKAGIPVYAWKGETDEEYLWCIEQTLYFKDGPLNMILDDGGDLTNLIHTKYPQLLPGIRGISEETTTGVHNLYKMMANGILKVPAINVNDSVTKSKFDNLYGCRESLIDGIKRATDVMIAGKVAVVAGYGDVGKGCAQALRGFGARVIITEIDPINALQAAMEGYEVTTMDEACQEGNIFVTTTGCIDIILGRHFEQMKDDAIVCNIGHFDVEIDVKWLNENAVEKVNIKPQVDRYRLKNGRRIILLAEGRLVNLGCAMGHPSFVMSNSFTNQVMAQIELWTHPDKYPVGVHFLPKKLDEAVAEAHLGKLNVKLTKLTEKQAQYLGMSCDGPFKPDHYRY

target: stress‐induced phosphoprotein 1 (STIP1), endogenous (human (endogenous in ESCC cell lines KYSE450, KYSE510)) (UniProt P31948); test: affinity purification with mass spectrometry; STIP1 complexes immunoprecipitated with anti-STIP1 antibody (normal IgG control) from KYSE450 and KYSE510 lysates, Protein A/G beads, SDS-PAGE, in-gel trypsin digestion, LC-MS/MS

Row | binding | Substance
1 | binds | IMPDH2, endogenous (from UniProt P12268 1-514) (enzyme)
2 | binds | Trypsin‐1 (from UniProt P07477) (enzyme)
3 | binds | adenosylhomocysteinase (AHCY), endogenous (from UniProt P23526 1-432) (enzyme)
